Reference: patent US4208410A, “Dibenzo[d,g][1,3,6]dioxazocine derivatives” (priority 1977, dated 1980)

Tested on: mice
Test: Local anaesthetic activity (Acta Chirurg. Scand. 116, 351 (1958))
Type: in vivo
Experimental: In order to observe the local anaesthetic activity of the instant compounds 0.25% and 0.5% solution thereof were tested following the method described in Acta Chirurg. Scand. 116, 351 (1958). The test animals were mice.
The concentration at which the activity amounted to 50% (EC50) was determined for the test compounds and for Lidocaine (2-diethylamino-2',6'-acetoxy-xylidide) used for comparison. In order to make possible a direct comparison of the test compounds with Lidocaine also the LD50 /EC50 -values are given in Table II.

## CCN(CC)CC(=O)Nc1c(C)cccc1C [Lidocaine, 2-diethylamino-2',6'-acetoxy-xylidide, reference compound]
  LD50/EC50: 1120
